The source of these data is patent US9371365B2 (The Trustees of the University of Pennsylvania, priority 2009, dated 2016).

Some peptides are written in HELM: one residue between dots, names in brackets for other building blocks, links after the first $.

The series is described as follows: general procedure: Fmoc solid-phase peptide synthesis; Low-loading Rink amide MBHA resin (0.34 mmol/g); DIC/HOAt. As to conditions: conjugation step.

Consider “PEPTIDE1{[ac].I.C.V.[Trp1Me].Q.D.W.[Sar].A.H.R.C.I.[miniPEG3].[miniPEG3].K.[am]}|PEPTIDE2{[TriazAc].R.L.I.E.D.I.C.L.P.R.W.G.C.L.W.E.D.D.[am]}$PEPTIDE1,PEPTIDE1,3:R3-13:R3|PEPTIDE2,PEPTIDE2,8:R3-14:R3|PEPTIDE1,PEPTIDE2,17:R3-1:R3$$$V2.0”, for which the conjugation yield is 50%.
